# Several values for one entry are separate records, joined by “and”; a condition that tells them apart may be missing. Equal values may be shown once. The list shows a part of the results. For some assays here: The source does not settle which construct or isoform was used.
# Key:
# Experiment in all cases: protein microarray (ProtoArray v5.0), streptavidin-Alexa Fluor 647
# Conditions in all cases: 3'-biotin; 20 mM Tris (pH 7.5), 5 mM MgCl2, 100 mM KCl, 0.1% Tween-20, A/T-rich and random oligonucleotide blockers; temperature not stated; high values mean tight binding
# [1] = target: FNTB (UniProt P49356)
# [2] = system: FOLR2 (human)
# [3] = system: FOXJ2 (human)
# [4] = system: FOXP1 (human)
# [5] = system: FOXP4 (human)
# [6] = system: FREQ (human)
# [7] = system: FRMD3 (human)
# [8] = system: FRMD4A (human)
# [9] = system: FRMD8 (human)
# [10] = system: FRS3 (human)
# [11] = system: FSD1L (human)
# [12] = system: FST (human)
# [13] = system: FTH1 (human)
# [14] = system: FTL (human)
# [15] = system: FUCA1 (human)
# [16] = system: FUNDC2 (human)
# [17] = target: T1, FUT10 (UniProt Q6P4F1)
# T1 sequence: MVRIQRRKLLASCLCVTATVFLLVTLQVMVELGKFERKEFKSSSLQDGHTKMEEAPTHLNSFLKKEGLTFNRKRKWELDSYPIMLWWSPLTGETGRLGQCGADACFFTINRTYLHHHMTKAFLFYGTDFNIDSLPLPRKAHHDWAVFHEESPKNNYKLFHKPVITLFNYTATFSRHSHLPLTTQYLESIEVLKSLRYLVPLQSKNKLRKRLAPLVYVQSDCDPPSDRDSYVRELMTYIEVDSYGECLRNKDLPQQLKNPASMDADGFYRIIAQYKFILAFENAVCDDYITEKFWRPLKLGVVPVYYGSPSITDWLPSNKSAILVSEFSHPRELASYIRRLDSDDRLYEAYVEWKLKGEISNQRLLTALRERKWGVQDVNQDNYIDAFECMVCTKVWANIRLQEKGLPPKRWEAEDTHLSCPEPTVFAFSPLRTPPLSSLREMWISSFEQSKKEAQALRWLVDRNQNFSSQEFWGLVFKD
# [18] = system: FUT2 (human)
# [19] = system: FVT1 (human)
# [20] = system: FXC1 (human)
sequence,measurement,setting,value
GGGAGGCTGAGGCAGG [G4-1 biotinylated (PQS2)],binding signal,[1],-0.321 z-score
same,binding signal,[2],-0.313 z-score
same,binding signal,[3],-0.312 z-score
same,binding signal,[4],-0.347 z-score
same,binding signal,[5],-0.319 z-score
same,binding signal,[6],-0.352 z-score
same,binding signal,[7],-0.3 z-score
same,binding signal,[8],-0.279 z-score
same,binding signal,[9],-0.335 z-score
same,binding signal,[10],-0.334 z-score
same,binding signal,[11],-0.283 z-score
same,binding signal,[12],-0.338 z-score
same,binding signal,[13],-0.285 z-score
same,binding signal,[14],-0.332 z-score and -0.351 z-score
same,binding signal,[15],-0.309 z-score
same,binding signal,[16],-0.331 z-score
same,binding signal,[17],-0.237 z-score
same,binding signal,[18],-0.318 z-score
same,binding signal,[19],-0.28 z-score
same,binding signal,[20],-0.349 z-score

# Some of the entries above in a different format.
sequence | measurement | setting | value
GGGAGGCTGAGGCAGG [G4-1 biotinylated (PQS2)] | binding signal | [3] | -0.312 z-score
same | binding signal | [13] | -0.285 z-score

# Source: paper PMC5996148
